In the supplement of paper PMC11348887:
Structures can show the parent of a compound that is named as a salt. This is one part of the list. Most values lie at the level of the controls, where differences are scatter.

The compounds below were run on hPSC-derived cortical neurons (WA09) (assay: nucleus area z-score vs screen plate; higher = larger nuclei (more mature)). Settings: 5 µM; treatment: days 7-14 after plating, readout day 21.

Q: With `Oc1ccc([C@H]2COc3cc(O)ccc3C2)cc1` [Equol] as the compound, how does the nucleus area z-score read?
A: 1.08

Q: `CO[C@@H]1[C@@H](OC(N)=O)[C@@H](O)[C@H](Oc2ccc3c(O)c(NC(=O)c4ccc(O)c(CC=C(C)C)c4)c(=O)oc3c2C)OC1(C)C` [Novobiocin Sodium] was tested. Which nucleus area z-score did it give?
A: 0.253

Q: With `Cc1c(O)cccc1C(=O)N[C@@H](CSc1ccccc1)[C@H](O)CN1C[C@H]2CCCC[C@H]2C[C@H]1C(=O)NC(C)(C)C` [Nelfinavir Mesylate] as the compound, how does the nucleus area z-score read?
A: -1.6

Q: `COc1cc(C(=O)NS(=O)(=O)c2ccccc2C)ccc1Cc1cn(C)c2ccc(NC(=O)OC3CCCC3)cc12` [Zafirlukast] was tested. Which nucleus area z-score did it give?
A: -0.608

Q: With `C[C@@H](O)[C@H]1C(=O)N2C(C(=O)O)=C(S[C@@H]3CN[C@H](CNS(N)(=O)=O)C3)[C@H](C)[C@H]12` [Doripenem Hydrate] as the compound, how does the nucleus area z-score read?
A: -0.146

The compounds below were run on hPSC-derived cortical neurons (WA09) (assay: total neurite length per nucleus (MAP2) z-score; higher = more neurite growth). Settings: 5 µM; treatment: days 7-14 after plating, readout day 21.

Q: How did the “total neurite length per nucleus (z-score)” value turn out when `CN(C)CCC(c1ccc(Cl)cc1)c1ccccn1` (stereo unspecified) [Chlorpheniramine Maleate] was run?
A: 0.525

Q: How did the “total neurite length per nucleus (z-score)” value turn out when `COc1ccc(S(=O)(=O)Nc2cccnc2Nc2ccc(O)cc2)cc1` was run?
A: -1.82

Q: For `CC[C@]1(O)C[C@@H]2CN(CCc3c([nH]c4ccccc34)[C@@](C(=O)OC)(c3cc4c(cc3OC)N(C)[C@H]3[C@@](O)(C(=O)OC)[C@H](OC(C)=O)[C@]5(CC)C=CCN6CC[C@]43[C@@H]65)C2)C1` [Vinblastine sulfate], which “total neurite length per nucleus (z-score)” value is on record?
A: -6.23

Q: `CCc1nc(N)nc(N)c1-c1ccc(Cl)cc1` [Pyrimethamine] was tested. Which “total neurite length per nucleus (z-score)” value did it give?
A: 0.0759

Q: With `CC1=C(CC(=O)O)c2cc(F)ccc2/C1=C\c1ccc([S+](C)[O-])cc1` (stereo unspecified) [Sulindac] as the compound, how does the “total neurite length per nucleus (z-score)” value read?
A: 0.187

Q: Which “total neurite length per nucleus (z-score)” value does the source give for `CC(=O)OCC(=O)[C@@]1(O)CC[C@H]2[C@@H]3CCC4=CC(=O)CC[C@]4(C)[C@H]3C(=O)C[C@@]21C` [Cortisone acetate] here?
A: 0.0622

Q: How did the “total neurite length per nucleus (z-score)” value turn out when `Cn1cc(-c2ccc(F)c(C(F)(F)F)c2)nc1C1CCN(c2ncnc3[nH]ncc23)CC1` was run?
A: 0.0273

Q: `CC(C)(C)c1ccc(C(O)CCCN2CCC(C(O)(c3ccccc3)c3ccccc3)CC2)cc1` (stereo unspecified) [Terfenadine] was tested. Which “total neurite length per nucleus (z-score)” value did it give?
A: -6.09

Q: Which “total neurite length per nucleus (z-score)” value does the source give for `CCN[C@@H]1C[C@H](N)[C@@H](O[C@H]2OC(CN)=CC[C@H]2N)[C@H](O)[C@H]1O[C@H]1OC[C@](C)(O)[C@H](NC)[C@H]1O` [Netilmicin Sulfate] here?
A: -1.42

Q: With `N#C/C(=C(/N)Sc1ccc(N)cc1)c1ccccc1C(F)(F)F` as the compound, how does the “total neurite length per nucleus (z-score)” value read?
A: 0.844

Q: How did the “total neurite length per nucleus (z-score)” value turn out when `O=C(CNc1ccc2ccccc2c1)N/N=C/c1cc(Br)c(O)c(Br)c1O` was run?
A: -0.0731

Q: `COC(=O)C1=C(C)NC(C)=C(C(=O)OC2CCCN(Cc3ccccc3)C2)C1c1cccc([N+](=O)[O-])c1` (stereo unspecified) [Benidipine HCl] was tested. Which “total neurite length per nucleus (z-score)” value did it give?
A: -2.31

Q: With `C[C@@H]1C[C@H]2[C@@H]3CCC4=CC(=O)C=C[C@]4(C)[C@@]3(Cl)[C@@H](O)C[C@]2(C)[C@@]1(OC(=O)c1ccco1)C(=O)CCl` [Mometasone furoate] as the compound, how does the “total neurite length per nucleus (z-score)” value read?
A: -0.876

Q: `CCO[C@@H]1OC(=O)C[C@@H]1NC(=O)[C@@H]1CCCN1C(=O)[C@@H](NC(=O)c1ccc(N)c(Cl)c1)C(C)(C)C` was tested. Which “total neurite length per nucleus (z-score)” value did it give?
A: -2.05

Q: For `Nc1nc2c(ncn2COC(CO)CO)c(=O)[nH]1` [Ganciclovir], which “total neurite length per nucleus (z-score)” value is on record?
A: -0.651

Q: How did the “total neurite length per nucleus (z-score)” value turn out when `CC(C)C(=O)OCC(=O)[C@@]12O[C@H](C3CCCCC3)O[C@@H]1C[C@H]1[C@@H]3CCC4=CC(=O)C=C[C@]4(C)[C@H]3[C@@H](O)C[C@@]12C` [Ciclesonide] was run?
A: -0.0208

Q: For `Cc1[nH]c(/C=C2\C(=O)Nc3ccc(S(=O)(=O)N(C)c4cccc(Cl)c4)cc32)c(C)c1C(=O)N1CCN(C)CC1`, which “total neurite length per nucleus (z-score)” value is on record?
A: 1.82

Q: With `Cc1[nH]c2ccccc2c1CCNCc1ccc(/C=C/C(=O)NO)cc1` [Panobinostat (LBH589)] as the compound, how does the “total neurite length per nucleus (z-score)” value read?
A: -2.92

Q: For `CC(C)[C@H](C(=O)Nc1ccc(C(=O)NO)cc1)c1ccccc1`, which “total neurite length per nucleus (z-score)” value is on record?
A: -6.43

Q: With `COc1ccc(-c2coc3cc(O)ccc3c2=O)cc1` [Formononetin] as the compound, how does the “total neurite length per nucleus (z-score)” value read?
A: -0.224

Q: With `O=C(NOCCO)c1ccc2cncn2c1Nc1ccc(I)cc1F` as the compound, how does the “total neurite length per nucleus (z-score)” value read?
A: -0.00517

Q: How did the “total neurite length per nucleus (z-score)” value turn out when `NC1(Cc2ccc(Cl)cc2)CCN(c2ncnc3[nH]ccc23)CC1` was run?
A: -1.4

Q: `O=C(O)c1cc(C(F)(F)F)ccc1N1CC[C@H](OCc2ccccn2)C1` was tested. Which “total neurite length per nucleus (z-score)” value did it give?
A: 0.0108

Q: Which “total neurite length per nucleus (z-score)” value does the source give for `O=C1Nc2ccccc2/C1=C1/Nc2ccccc2C1=O` [Indirubin] here?
A: 0.302

Q: With `CN(C)c1ccc2nc3ccc(=[N+](C)C)cc-3sc2c1` [Methylene Blue] as the compound, how does the “total neurite length per nucleus (z-score)” value read?
A: 3.16

Q: How did the “total neurite length per nucleus (z-score)” value turn out when `Cc1nc(Nc2ncc(C(=O)Nc3c(C)cccc3Cl)s2)cc(N2CCN(CCO)CC2)n1` [Dasatinib] was run?
A: 0.0839
